Data published in publication PMC8688145.
These are yes or no findings as the source states them, for the method shown. For some of these results: In cells and extracts the contact can be indirect. Some entries that bind do so weakly or less than the wild type. Sequences can lack the tags named with a protein.

Assays:
[1] = target: T1, FLAG-tagged human PEX2 (PEX2–FLAG) (human) (UniProt P28328); assay: co-IP; HEK293T whole cell extract 48 h after expressing PEX2–FLAG, LD formation induced by oleic acid; IP with anti-FLAG beads overnight at 4 °C in RIPA buffer (50 mM Tris-HCl pH 7.4, 150 mM NaCl, 2 mM EDTA, 1.0% Triton X-100); immunoblot
T1 sequence: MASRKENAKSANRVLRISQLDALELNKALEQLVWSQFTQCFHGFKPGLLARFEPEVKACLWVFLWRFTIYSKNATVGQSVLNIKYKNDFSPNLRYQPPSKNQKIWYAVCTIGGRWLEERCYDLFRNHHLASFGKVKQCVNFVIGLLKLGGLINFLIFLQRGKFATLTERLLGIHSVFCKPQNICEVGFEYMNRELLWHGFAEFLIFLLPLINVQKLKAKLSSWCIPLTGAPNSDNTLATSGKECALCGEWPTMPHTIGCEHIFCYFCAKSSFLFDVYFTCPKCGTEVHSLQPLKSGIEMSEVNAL

[2] = target: T2, murine PEX2–FLAG–EGFP (mouse) (UniProt P55098); assay: proximity ligation; fixed iBAs expressing tagged PEX2; mouse FLAG antibody and rabbit ATGL antibody, Sigma-Aldrich DUO92101 kit; no antibodies as negative control
T2 sequence: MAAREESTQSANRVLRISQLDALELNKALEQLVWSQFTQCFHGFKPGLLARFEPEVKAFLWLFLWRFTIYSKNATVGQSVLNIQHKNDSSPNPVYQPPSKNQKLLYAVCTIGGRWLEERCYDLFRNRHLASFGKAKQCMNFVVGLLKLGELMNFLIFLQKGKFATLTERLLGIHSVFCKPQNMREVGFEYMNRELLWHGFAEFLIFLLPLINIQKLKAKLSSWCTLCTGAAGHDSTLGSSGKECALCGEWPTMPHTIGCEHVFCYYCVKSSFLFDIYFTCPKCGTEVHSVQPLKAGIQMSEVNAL

[3] = target: human PEX2–FLAG–Myc (human) (UniProt P28328); assay: non-reducing SDS-PAGE and immunoblot after IP (disulfide-linked oligomers); FLAG-tagged PEX2 enriched by anti-FLAG IP from HEK293T cells, iBAs or mouse liver, eluted in BME-free Laemmli buffer; with or without H2O2 or MG132 treatment of the cells
[4] = target: human PEX2–FLAG–Myc (human) (UniProt P28328); assay: condition: only eluted by Laemmli buffer with BME (reducing state); reducing SDS-PAGE and immunoblot after IP; as a3, but PEX2 eluted by Laemmli buffer with BME
[5] = target: PEX2–FLAG expressed in iBAs (not stated (human or mouse cDNA cloned)) (UniProt P55098); assay: non-reducing SDS-PAGE and immunoblot after IP (disulfide-linked oligomers); FLAG-tagged PEX2 enriched by anti-FLAG IP from HEK293T cells, iBAs or mouse liver, eluted in BME-free Laemmli buffer; with or without H2O2 or MG132 treatment of the cells
[6] = target: T2, murine PEX2–FLAG–EGFP (mouse); assay: as above
[7] = target: FLAG-tagged murine PEX2 expressed in the liver (mouse) (UniProt P55098); assay: as above
[8] = target: FLAG-tagged murine PEX2 expressed in the liver (mouse) (UniProt P55098); assay: condition: only after β-mercaptoethanol (BME) treatment; reducing SDS-PAGE and immunoblot after IP; as a3, but PEX2 eluted by Laemmli buffer with BME

B1: adipose triglyceride lipase (ATGL), endogenous in HEK293T (enzyme, UniProt Q96AD5 1-504)
chain: MFPREKTWNISFAGCGFLGVYYVGVASCLREHAPFLVANATHIYGASAGALTATALVTGVCLGEAGAKFIEVSKEARKRFLGPLHPSFNLVKIIRSFLLKVLPADSHEHASGRLGISLTRVSDGENVIISHFNSKDELIQANVCSGFIPVYCGLIPPSLQGVRYVDGGISDNLPLYELKNTITVSPFSGESDICPQDSSTNIHELRVTNTSIQFNLRNLYRLSKALFPPEPLVLREMCKQGYRDGLRFLQRNGLLNRPNPLLALPPARPHGPEDKDQAVESAQAEDYSQLPGEDHILEHLPARLNEALLEACVEPTDLLTTLSNMLPVRLATAMMVPYTLPLESALSFTIRLLEWLPDVPEDIRWMKEQTGSICQYLVMRAKRKLGRHLPSRLPEQVELRRVQSLPSVPLSCAAYREALPGWMRNNLSLGDALAKWEECQRQLLLGLFCTNVAFPPEALRMRAPADPAPAPADPASPQHQLAGPAPLLSTPAPEARPVIGALGL
Q: B1 was tested. Which binding [1] did it give?
A: Its binding is “binds”.

B2: human ATGL–FLAG (enzyme, UniProt Q96AD5 1-504)
chain: MFPREKTWNISFAGCGFLGVYYVGVASCLREHAPFLVANATHIYGASAGALTATALVTGVCLGEAGAKFIEVSKEARKRFLGPLHPSFNLVKIIRSFLLKVLPADSHEHASGRLGISLTRVSDGENVIISHFNSKDELIQANVCSGFIPVYCGLIPPSLQGVRYVDGGISDNLPLYELKNTITVSPFSGESDICPQDSSTNIHELRVTNTSIQFNLRNLYRLSKALFPPEPLVLREMCKQGYRDGLRFLQRNGLLNRPNPLLALPPARPHGPEDKDQAVESAQAEDYSQLPGEDHILEHLPARLNEALLEACVEPTDLLTTLSNMLPVRLATAMMVPYTLPLESALSFTIRLLEWLPDVPEDIRWMKEQTGSICQYLVMRAKRKLGRHLPSRLPEQVELRRVQSLPSVPLSCAAYREALPGWMRNNLSLGDALAKWEECQRQLLLGLFCTNVAFPPEALRMRAPADPAPAPADPASPQHQLAGPAPLLSTPAPEARPVIGALGL
Q: Which binding [1] does the source give for B2 here?
A: Its binding is “binds”.

B3: ATGL, endogenous in iBAs (enzyme, UniProt Q8BJ56 1-486)
chain: MFPRETKWNISFAGCGFLGVYHIGVASCLREHAPFLVANATHIYGASAGALTATALVTGACLGEAGANIIEVSKEARKRFLGPLHPSFNLVKTIRGCLLKTLPADCHERANGRLGISLTRVSDGENVIISHFSSKDELIQANVCSTFIPVYCGLIPPTLQGVRYVDGGISDNLPLYELKNTITVSPFSGESDICPQDSSTNIHELRVTNTSIQFNLRNLYRLSKALFPPEPMVLREMCKQGYRDGLRFLRRNGLLNQPNPLLALPPVVPQEEDAEEAAVVEERAGEEDQLQPYRKDRILEHLPARLNEALLEACVEPKDLMTTLSNMLPVRLATAMMVPYTLPLESAVSFTIRLLEWLPDVPEDIRWMKEQTGSICQYLVMRAKRKLGDHLPSRLSEQVELRRAQSLPSVPLSCATYSEALPNWVRNNLSLGDALAKWEECQRQLLLGLFCTNVAFPPDALRMRAPASPTAADPATPQDPPGLPPC
Q: How did the binding [2] turn out when B3 was run?
A: The binding was “binds”.

B4: human PEX2–FLAG–Myc (protein, UniProt P28328 1-305)
chain: MASRKENAKSANRVLRISQLDALELNKALEQLVWSQFTQCFHGFKPGLLARFEPEVKACLWVFLWRFTIYSKNATVGQSVLNIKYKNDFSPNLRYQPPSKNQKIWYAVCTIGGRWLEERCYDLFRNHHLASFGKVKQCVNFVIGLLKLGGLINFLIFLQRGKFATLTERLLGIHSVFCKPQNICEVGFEYMNRELLWHGFAEFLIFLLPLINVQKLKAKLSSWCIPLTGAPNSDNTLATSGKECALCGEWPTMPHTIGCEHIFCYFCAKSSFLFDVYFTCPKCGTEVHSLQPLKSGIEMSEVNAL
modifications: intramolecular and intermolecular disulfide bonds (non-reducing state)
Q: With B4 as the binder, how does the binding [3] read?
A: Its binding is “binds”.

Q: What about the binding [4] of the same binder?
A: Its binding is “no binding”.

B5: PEX2–FLAG expressed in iBAs (protein, UniProt P55098 1-305)
chain: MAAREESTQSANRVLRISQLDALELNKALEQLVWSQFTQCFHGFKPGLLARFEPEVKAFLWLFLWRFTIYSKNATVGQSVLNIQHKNDSSPNPVYQPPSKNQKLLYAVCTIGGRWLEERCYDLFRNRHLASFGKAKQCMNFVVGLLKLGELMNFLIFLQKGKFATLTERLLGIHSVFCKPQNMREVGFEYMNRELLWHGFAEFLIFLLPLINIQKLKAKLSSWCTLCTGAAGHDSTLGSSGKECALCGEWPTMPHTIGCEHVFCYYCVKSSFLFDIYFTCPKCGTEVHSVQPLKAGIQMSEVNAL
modifications: intramolecular and intermolecular disulfide bonds (non-reducing state)
Q: B5 was tested. Which binding [5] did it give?
A: The binding was “binds”.

B6: murine PEX2–FLAG–EGFP (protein, UniProt P55098 1-305)
chain: MAAREESTQSANRVLRISQLDALELNKALEQLVWSQFTQCFHGFKPGLLARFEPEVKAFLWLFLWRFTIYSKNATVGQSVLNIQHKNDSSPNPVYQPPSKNQKLLYAVCTIGGRWLEERCYDLFRNRHLASFGKAKQCMNFVVGLLKLGELMNFLIFLQKGKFATLTERLLGIHSVFCKPQNMREVGFEYMNRELLWHGFAEFLIFLLPLINIQKLKAKLSSWCTLCTGAAGHDSTLGSSGKECALCGEWPTMPHTIGCEHVFCYYCVKSSFLFDIYFTCPKCGTEVHSVQPLKAGIQMSEVNAL
Q: B6 was tested. Which binding [6] did it give?
A: The binding was “binds”.

B7: FLAG-tagged murine PEX2 expressed in the liver (protein, UniProt P55098 1-305)
chain: MAAREESTQSANRVLRISQLDALELNKALEQLVWSQFTQCFHGFKPGLLARFEPEVKAFLWLFLWRFTIYSKNATVGQSVLNIQHKNDSSPNPVYQPPSKNQKLLYAVCTIGGRWLEERCYDLFRNRHLASFGKAKQCMNFVVGLLKLGELMNFLIFLQKGKFATLTERLLGIHSVFCKPQNMREVGFEYMNRELLWHGFAEFLIFLLPLINIQKLKAKLSSWCTLCTGAAGHDSTLGSSGKECALCGEWPTMPHTIGCEHVFCYYCVKSSFLFDIYFTCPKCGTEVHSVQPLKAGIQMSEVNAL
modifications: intermolecular and intramolecular disulfide bonds (without BME)
Q: For B7, which binding [7] is on record?
A: The binding was “binds”.

Q: What about the binding [8] of the same binder?
A: The binding was “no binding”.

B8: CGI-58 (protein, UniProt Q8WTS1 1-349)
chain: MAAEEEEVDSADTGERSGWLTGWLPTWCPTSISHLKEAEEKMLKCVPCTYKKEPVRISNGNKIWTLKFSHNISNKTPLVLLHGFGGGLGLWALNFGDLCTNRPVYAFDLLGFGRSSRPRFDSDAEEVENQFVESIEEWRCALGLDKMILLGHNLGGFLAAAYSLKYPSRVNHLILVEPWGFPERPDLADQDRPIPVWIRALGAALTPFNPLAGLRIAGPFGLSLVQRLRPDFKRKYSSMFEDDTVTEYIYHCNVQTPSGETAFKNMTIPYGWAKRPMLQRIGKMHPDIPVSVIFGARSCIDGNSGTSIQSLRPHSYVKTIAILGAGHYVYADQPEEFNQKVKEICDTVD
Q: B8 was tested. Which binding [1] did it give?
A: The binding was “no binding”.
